# Laboratory results as given in article PMC8748404 (Angewandte Chemie (International ed. in English), 2021).
# Tests used:
# [1] = system: PB1-BD2, PB1-BD4, PB1-BD5, BRD7 and BRD9; assay: concurrent screening against five bromodomain proteins; type: binding; details: five bromodomain proteins screened concurrently
# PB1-BD2/4/5 = assay: DNA-based ligand displacement assay, IC50 determination of hit compounds; type: binding
compound,measurement,setting,value
COc1cc2nc(N3CCCC3)nc(NCCCCCN3CCCC3)c2cc1OC [UNC-0379],selectivity in concurrent screen,[1],selectivity for PB1-BD2/4/5 over BRD7/9
same,binding to respective bromodomains (IC50 determination),PB1-BD2/4/5,potent binding
